Some of the results follow. Residues, ends and D or L forms follow the SMILES beside them. *: point of attachment. Cbz = O=C(OCc1ccccc1)*
What was measured:
Experiment in all cases: log2 fold change, soluble protein after heating vs DMSO (PISA); higher = thermal stabilisation; K562 cells, 10 uM, 30 min; active = over 0.2 and 3.5 SD of the protein, either way, in both replicates (recomputed)
[1] = compound: C1=CC=C(C=C1)[C@H](COC2=CC3=C(C=C2)NC(=O)N3)NC(=O)C4=CC=CN(C4=O)CC5=CC(=C(C=C5)F)F
In short: (§1)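 Values are thermal stability changes relative to control samples and are taken from duplicates. They are stated as log2 fold changes. Before quantification by TMTpro 16plex LC-MS/MS with equalised channel sums, K562 cells at 2×10^6 cells/mL were treated with 10 μM compound for 30 min, heated in aliquots for 3 min across 48°C-58°C, pooled, extracted in PBS with 0.5% NP-40 at 4°C, and centrifuged at 21,000xg for 90 min to give the soluble supernatant.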

Amino acid sequences for entries named in this document (tags omitted). A change or cut given only in a name is not applied to a line headed by its entry.
UniProt Q9NZ32, whole entry, looked up: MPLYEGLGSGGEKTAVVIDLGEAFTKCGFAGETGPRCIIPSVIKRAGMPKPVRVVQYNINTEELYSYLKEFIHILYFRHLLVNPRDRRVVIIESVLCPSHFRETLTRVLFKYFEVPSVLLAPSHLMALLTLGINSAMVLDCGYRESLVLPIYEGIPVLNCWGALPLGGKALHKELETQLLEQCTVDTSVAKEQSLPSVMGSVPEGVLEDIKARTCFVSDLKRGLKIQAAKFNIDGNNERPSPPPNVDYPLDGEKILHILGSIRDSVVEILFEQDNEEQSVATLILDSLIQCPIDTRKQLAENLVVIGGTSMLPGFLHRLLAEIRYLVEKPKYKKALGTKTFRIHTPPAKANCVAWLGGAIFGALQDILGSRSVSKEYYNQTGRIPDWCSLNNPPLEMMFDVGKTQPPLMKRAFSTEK
UniProt O43707, whole entry, looked up: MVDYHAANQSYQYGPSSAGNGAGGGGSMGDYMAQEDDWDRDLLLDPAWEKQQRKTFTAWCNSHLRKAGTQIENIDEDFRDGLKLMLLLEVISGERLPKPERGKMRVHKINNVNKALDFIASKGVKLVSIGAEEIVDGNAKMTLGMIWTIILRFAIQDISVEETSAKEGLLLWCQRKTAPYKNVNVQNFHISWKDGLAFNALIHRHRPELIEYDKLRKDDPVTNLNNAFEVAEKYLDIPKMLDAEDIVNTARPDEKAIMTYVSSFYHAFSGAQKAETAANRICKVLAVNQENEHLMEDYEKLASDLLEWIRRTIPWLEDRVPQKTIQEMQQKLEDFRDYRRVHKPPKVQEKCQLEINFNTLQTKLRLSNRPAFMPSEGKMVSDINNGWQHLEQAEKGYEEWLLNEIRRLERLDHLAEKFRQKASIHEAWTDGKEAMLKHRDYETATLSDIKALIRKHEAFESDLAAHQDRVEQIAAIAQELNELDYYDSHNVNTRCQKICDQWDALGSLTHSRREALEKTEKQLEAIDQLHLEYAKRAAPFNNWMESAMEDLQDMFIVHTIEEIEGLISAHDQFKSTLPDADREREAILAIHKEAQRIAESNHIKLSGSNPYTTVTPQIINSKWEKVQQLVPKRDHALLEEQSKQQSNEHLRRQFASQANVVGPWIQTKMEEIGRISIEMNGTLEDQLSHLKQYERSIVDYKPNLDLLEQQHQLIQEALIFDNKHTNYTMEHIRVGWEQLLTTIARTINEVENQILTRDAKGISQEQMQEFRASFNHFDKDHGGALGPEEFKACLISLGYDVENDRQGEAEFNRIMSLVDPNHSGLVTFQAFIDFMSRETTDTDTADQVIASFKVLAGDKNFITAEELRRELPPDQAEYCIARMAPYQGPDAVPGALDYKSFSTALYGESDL
UniProt Q9GZN1, whole entry, looked up: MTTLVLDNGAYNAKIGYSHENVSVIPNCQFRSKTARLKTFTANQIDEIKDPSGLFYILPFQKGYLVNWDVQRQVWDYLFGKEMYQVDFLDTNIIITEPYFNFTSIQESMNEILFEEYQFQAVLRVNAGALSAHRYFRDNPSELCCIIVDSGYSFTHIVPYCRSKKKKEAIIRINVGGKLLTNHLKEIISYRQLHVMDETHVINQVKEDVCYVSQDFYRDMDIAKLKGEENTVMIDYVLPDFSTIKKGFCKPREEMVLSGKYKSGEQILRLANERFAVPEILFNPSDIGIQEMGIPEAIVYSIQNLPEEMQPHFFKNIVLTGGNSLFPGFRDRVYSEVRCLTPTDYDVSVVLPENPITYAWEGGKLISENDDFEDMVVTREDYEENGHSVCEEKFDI
UniProt Q15057: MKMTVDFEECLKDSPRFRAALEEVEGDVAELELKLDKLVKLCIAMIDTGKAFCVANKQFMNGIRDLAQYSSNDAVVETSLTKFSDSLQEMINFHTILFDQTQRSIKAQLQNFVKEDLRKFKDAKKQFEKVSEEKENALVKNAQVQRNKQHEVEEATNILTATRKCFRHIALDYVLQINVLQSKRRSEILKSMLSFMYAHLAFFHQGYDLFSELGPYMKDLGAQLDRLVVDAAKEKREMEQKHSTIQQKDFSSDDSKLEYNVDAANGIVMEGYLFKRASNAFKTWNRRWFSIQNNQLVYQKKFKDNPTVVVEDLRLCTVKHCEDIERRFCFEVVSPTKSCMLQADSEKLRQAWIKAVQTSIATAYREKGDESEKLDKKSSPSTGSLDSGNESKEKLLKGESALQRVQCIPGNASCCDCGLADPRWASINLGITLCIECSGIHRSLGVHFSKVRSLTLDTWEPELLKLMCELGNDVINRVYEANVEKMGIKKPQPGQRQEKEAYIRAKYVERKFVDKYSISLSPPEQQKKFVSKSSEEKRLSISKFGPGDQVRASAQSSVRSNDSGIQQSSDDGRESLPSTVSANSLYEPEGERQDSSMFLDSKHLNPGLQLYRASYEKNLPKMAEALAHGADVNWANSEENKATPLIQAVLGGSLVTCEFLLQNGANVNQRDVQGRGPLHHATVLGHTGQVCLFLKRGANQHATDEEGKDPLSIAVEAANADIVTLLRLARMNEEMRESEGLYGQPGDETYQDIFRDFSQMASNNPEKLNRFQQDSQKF
UniProt Q03154: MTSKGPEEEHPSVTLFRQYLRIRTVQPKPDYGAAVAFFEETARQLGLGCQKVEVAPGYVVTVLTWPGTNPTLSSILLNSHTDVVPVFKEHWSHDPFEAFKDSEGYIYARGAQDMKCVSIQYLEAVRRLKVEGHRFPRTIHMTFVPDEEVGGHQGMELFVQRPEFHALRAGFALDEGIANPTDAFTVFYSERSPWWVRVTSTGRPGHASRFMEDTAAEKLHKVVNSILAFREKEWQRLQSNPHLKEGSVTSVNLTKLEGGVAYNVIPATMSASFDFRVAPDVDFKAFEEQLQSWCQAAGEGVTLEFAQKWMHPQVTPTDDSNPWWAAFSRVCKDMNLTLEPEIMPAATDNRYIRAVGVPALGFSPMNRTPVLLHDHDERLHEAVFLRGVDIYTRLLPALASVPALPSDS
UniProt Q8IZP0: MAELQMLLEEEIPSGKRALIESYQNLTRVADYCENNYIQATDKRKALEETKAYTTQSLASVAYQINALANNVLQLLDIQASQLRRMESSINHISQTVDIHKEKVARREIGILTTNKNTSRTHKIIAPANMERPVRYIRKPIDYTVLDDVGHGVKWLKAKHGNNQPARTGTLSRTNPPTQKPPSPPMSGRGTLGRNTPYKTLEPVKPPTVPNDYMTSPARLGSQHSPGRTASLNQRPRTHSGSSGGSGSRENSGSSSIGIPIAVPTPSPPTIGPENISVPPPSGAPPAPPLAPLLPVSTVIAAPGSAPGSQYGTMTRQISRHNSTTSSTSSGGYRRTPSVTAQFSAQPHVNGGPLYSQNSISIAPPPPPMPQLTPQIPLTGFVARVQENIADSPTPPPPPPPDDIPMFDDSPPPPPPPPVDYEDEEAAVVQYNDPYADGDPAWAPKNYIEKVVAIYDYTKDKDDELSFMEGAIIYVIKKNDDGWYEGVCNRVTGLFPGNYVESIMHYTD
UniProt P22303: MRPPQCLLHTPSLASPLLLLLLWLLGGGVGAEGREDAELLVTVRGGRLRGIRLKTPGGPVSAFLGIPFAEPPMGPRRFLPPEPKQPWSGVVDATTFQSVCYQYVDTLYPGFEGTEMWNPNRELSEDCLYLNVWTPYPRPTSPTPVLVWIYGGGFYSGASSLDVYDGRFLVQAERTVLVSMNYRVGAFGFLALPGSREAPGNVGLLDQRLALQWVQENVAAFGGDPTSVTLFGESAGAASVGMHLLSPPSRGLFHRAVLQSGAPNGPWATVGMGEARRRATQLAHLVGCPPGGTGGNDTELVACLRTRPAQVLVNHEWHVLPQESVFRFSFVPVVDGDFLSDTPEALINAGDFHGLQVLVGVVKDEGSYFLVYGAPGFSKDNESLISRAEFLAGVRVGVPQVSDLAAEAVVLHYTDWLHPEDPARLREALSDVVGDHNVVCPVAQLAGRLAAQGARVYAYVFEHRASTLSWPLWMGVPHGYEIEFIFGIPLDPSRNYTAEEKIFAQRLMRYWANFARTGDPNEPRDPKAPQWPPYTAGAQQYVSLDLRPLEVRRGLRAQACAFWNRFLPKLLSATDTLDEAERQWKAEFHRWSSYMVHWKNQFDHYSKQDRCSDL
UniProt Q9H845: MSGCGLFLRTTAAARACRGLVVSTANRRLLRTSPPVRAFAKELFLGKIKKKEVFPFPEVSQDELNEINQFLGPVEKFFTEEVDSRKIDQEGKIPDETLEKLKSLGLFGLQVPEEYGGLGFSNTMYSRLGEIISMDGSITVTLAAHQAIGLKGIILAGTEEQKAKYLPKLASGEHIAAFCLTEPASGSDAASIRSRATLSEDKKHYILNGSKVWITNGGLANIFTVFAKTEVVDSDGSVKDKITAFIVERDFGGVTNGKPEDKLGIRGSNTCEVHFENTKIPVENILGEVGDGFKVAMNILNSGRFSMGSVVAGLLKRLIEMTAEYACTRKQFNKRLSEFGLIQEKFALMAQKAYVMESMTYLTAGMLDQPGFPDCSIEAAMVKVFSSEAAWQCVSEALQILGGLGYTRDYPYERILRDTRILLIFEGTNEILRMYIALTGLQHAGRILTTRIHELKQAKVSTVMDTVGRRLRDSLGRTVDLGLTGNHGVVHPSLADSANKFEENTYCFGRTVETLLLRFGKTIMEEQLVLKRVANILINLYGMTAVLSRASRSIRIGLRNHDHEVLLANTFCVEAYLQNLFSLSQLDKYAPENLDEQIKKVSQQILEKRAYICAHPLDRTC
UniProt P55265: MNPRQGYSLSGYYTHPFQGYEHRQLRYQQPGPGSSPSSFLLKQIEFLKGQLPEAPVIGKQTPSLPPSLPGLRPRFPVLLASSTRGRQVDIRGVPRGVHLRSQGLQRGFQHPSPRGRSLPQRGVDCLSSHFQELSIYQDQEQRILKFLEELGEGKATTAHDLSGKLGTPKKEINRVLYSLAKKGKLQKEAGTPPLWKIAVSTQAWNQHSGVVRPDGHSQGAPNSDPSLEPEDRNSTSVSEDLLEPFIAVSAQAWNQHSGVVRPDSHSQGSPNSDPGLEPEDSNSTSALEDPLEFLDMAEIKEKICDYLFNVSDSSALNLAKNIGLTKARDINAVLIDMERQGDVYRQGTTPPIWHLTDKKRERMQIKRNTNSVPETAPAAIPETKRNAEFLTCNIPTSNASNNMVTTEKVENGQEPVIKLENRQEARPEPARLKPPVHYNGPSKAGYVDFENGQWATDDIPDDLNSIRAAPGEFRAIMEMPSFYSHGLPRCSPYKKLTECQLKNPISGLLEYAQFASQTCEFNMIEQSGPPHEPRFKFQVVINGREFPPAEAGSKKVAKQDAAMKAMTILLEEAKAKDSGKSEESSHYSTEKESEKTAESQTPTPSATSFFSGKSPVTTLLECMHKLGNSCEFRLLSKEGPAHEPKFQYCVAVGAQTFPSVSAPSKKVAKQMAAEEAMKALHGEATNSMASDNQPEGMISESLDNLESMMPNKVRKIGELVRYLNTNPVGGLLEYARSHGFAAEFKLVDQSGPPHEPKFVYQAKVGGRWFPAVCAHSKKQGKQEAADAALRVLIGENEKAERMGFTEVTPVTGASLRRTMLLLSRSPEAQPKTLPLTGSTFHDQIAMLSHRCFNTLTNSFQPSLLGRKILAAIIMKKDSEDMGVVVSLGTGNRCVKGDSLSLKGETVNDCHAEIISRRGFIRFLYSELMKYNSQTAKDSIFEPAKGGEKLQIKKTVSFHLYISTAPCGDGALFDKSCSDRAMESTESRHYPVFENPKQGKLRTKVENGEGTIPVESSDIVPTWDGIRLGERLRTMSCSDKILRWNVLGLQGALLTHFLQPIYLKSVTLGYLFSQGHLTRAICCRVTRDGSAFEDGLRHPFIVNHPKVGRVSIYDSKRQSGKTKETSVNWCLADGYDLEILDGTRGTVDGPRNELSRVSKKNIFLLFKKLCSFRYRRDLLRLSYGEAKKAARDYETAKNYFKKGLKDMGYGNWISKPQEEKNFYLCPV
UniProt Q9NR19, whole entry, looked up: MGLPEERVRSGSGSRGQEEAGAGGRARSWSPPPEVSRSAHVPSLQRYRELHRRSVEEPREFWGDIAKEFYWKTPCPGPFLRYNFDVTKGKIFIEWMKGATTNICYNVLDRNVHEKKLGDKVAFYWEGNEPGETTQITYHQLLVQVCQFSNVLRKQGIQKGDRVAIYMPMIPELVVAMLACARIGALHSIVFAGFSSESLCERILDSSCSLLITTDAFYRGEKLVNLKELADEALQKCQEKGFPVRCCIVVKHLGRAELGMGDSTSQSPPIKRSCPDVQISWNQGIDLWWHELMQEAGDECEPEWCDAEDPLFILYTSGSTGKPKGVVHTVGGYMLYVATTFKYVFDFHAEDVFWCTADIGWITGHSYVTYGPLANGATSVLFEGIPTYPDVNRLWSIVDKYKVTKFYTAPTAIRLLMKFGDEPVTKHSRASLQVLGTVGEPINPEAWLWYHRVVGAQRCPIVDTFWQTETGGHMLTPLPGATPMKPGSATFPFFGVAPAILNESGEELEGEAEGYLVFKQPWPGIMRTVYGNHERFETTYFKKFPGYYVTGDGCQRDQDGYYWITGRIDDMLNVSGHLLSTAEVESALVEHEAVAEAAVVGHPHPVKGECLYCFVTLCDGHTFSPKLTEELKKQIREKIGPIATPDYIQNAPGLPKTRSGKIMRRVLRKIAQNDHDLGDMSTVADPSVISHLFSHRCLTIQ

[2] = compound: CC1=C(SC2=C1C(=N[C@H](C3=NN=C(N32)C)CC(=O)N)C4=CC=C(C=C4)Cl)C
In short: as §1

[3] = compound: CC1=C2C(=CC=C1)N=C(N(C2=O)C3=CC=CC=C3C)CN4C=NC5=C(N=CN=C54)N
In short: as §1

[4] = compound: Cc1sc2c(c1C)C(c1ccc(Cl)cc1)=N[C@@H](CC(=O)OC(C)(C)C)c1nnc(C)n1-2
In short: as §1

[5] = compound: c1ccc([C@@H]2C[C@H]2NC2CCNCC2)cc1
In short: as §1

[6] = compound: C1=CC(=C(C=C1Cl)C2=NC3=NC=CN=C3C(=N2)NC4=CC=NC=C4)F
In short: as §1

[7] = compound: C1=CC2=NC=CN=C2C=C1/C=C/3\C(=O)NC(=O)S3
In short: as §1

[8] = compound: C1=CC=C(C=C1)C2=NC(=C(N2)C3=CC=NC=C3)C4=CC(=C(C=C4)Cl)O
In short: as §1

[9] = compound: C=CC(=O)N1CCC[C@@H](n2nc(-c3ccc(Oc4ccccc4)cc3)c3c(N)ncnc32)C1 [ibrutinib]
In short: as §1

[10] = compound: CC(C)(C)Cn1c(N)nc2ccc(-c3[nH]c(C(C)(C)C)nc3-c3ccc(F)cc3)nc21 [ralimetinib]
In short: as §1

[11] = compound: CC(C)(O)CC(=O)NCCn1ccc2ncnc(Nc3ccc(Oc4cccc(C(F)(F)F)c4)c(Cl)c3)c21
In short: as §1

[12] = compound: CC(C)C[C@@H](C=O)NC(=O)[C@H](CC(C)C)NC(=O)[C@H](CC(C)C)NC(=O)OCc1ccccc1
In short: as §1

[13] = compound: CC1=C(C=C(C=C1)NC(=O)C2=CC(=CC=C2)C(C)(C)C#N)NC3=CC4=C(C=C3)N=CN(C4=O)C
In short: as §1

[14] = compound: CC1=C(C=C(C=C1)NC(=O)C2=CC(=CC=C2)N(C)C)NC(=O)C3=CC=C(C=C3)O
In short: as §1

[15] = compound: CC1=CC=C(C=C1)SC2=C3C=C(SC3=CN=C2)C(=O)N
In short: as §1

[16] = compound: CCCCN(Cc1ccc(C(=O)NO)cc1)C(=O)Nc1ccccc1 [Nexturastat A]
In short: as §1

[17] = compound: CCCS(=O)(=O)Nc1ccc(F)c(C(=O)c2c[nH]c3ncc(Cl)cc23)c1F
In short: as §1

[18] = compound: CCN(CCCOc1ccc2c(Nc3cc(CC(=O)Nc4cccc(F)c4)[nH]n3)ncnc2c1)CCOP(=O)(O)O [barasertib]
In short: as §1

[19] = compound: CC[C@@H]1C(=O)N(C)c2cnc(Nc3ccc(C(=O)N[C@H]4CC[C@H](N5CCN(CC6CC6)CC5)CC4)cc3OC)nc2N1C(C)C [volasertib]
In short: as §1

[20] = compound: CC[C@H](C)[C@@H](C(=O)N[C@@H]([C@@H](C)O)C(=O)N[C@@H](CC(C)C)C(=O)[C@]1(CO1)C)NC(=O)[C@H]([C@@H](C)CC)N(C)C(=O)C [epoxomicin]
In short: as §1

[21] = compound: CN(CCOC1=CC=C(C=C1)C[C@H]2C(=O)NC(=O)S2)C3=CC=CC=N3 (racemic) [rosiglitazone]
In short: as §1

[22] = compound: CN1CCN(c2nc(C3=C(c4c[nH]c5ccccc45)C(=O)NC3=O)c3ccccc3n2)CC1 [sotrastaurin]
In short: as §1

[23] = compound: CON(C)C(=O)N1N=C(c2cc(F)ccc2F)S[C@@]1(CCCN)c1ccccc1 [filanesib]
In short: as §1

[24] = compound: COc1cc2nc(-c3cc(F)ccc3O)nc(N[C@@H]3CNC[C@H]3C(C)(C)O)c2cc1OC
In short: as §1

[25] = compound: CS(=O)(=O)CCNCc1ccc(-c2ccc3ncnc(Nc4ccc(OCc5cccc(F)c5)c(Cl)c4)c3c2)o1 [lapatinib]
In short: as §1

[26] = compound: CS(=O)(=O)c1ccc(-c2cnc(N)c(C(=O)Nc3ccccc3)n2)cc1
In short: as §1

[27] = compound: C[C@@H]1COCCN1C2=NC(=NC(=C2)C3(CC3)S(=O)(=O)C)C4=C5C=CNC5=CC=C4
In short: as §1

[28] = compound: Cc1ccc(C(=O)N(CCCN)[C@@H](c2nc3cc(Cl)ccc3c(=O)n2Cc2ccccc2)C(C)C)cc1 [ispinesib]
In short: as §1

[29] = compound: Cc1ccc(NC(=O)c2ccc(CN3CC[C@H](N(C)C)C3)c(C(F)(F)F)c2)cc1Nc1nccc(-c2cncnc2)n1 [bafetinib]
In short: as §1

[30] = compound: Cn1cc(-c2ccc3nnc(C(F)(F)c4ccc5ncccc5c4)n3n2)cn1
In short: as §1

[31] = compound: Cn1cncc1[C@@](N)(c1ccc(Cl)cc1)c1ccc2c(c1)c(-c1cccc(Cl)c1)cc(=O)n2C [tipifarnib]
In short: as §1

[32] = compound: NC(=O)Nc1cc(-c2cccc(F)c2)sc1C(=O)N[C@H]1CCCNC1
In short: as §1

[33] = compound: Nc1ccccc1NC(=O)c1ccc(CNC(=O)OCc2cccnc2)cc1 [entinostat]
In short: as §1

[34] = compound: O=C1NC(=O)C(c2cnc3ccccn23)=C1c1cn2c3c(cc(F)cc13)CN(C(=O)N1CCCCC1)CC2
In short: as §1

Measured: log2 fold change

ACTR10 (UniProt Q9NZ32)
inactive: [1] -0.004 | [2] -0.051 | [3] -0.024 | [4] -0.036 | [5] 0.128

ACTN4 (UniProt O43707)
inactive: [1] 0.054 | [2] 0.016 | [3] 0.008 | [4] -0.013 | [5] 0.006

ACTR6 (UniProt Q9GZN1)
inactive: [1] 0.105 | [2] 0.044 | [3] 0.111 | [4] -0.08 | [5] -0.008

ACAT1 (UniProt P24752)
inactive: [1] 0.009 | [2] 0.045 | [3] 0.03 | [4] -0.057 | [5] 0

ACTR2 (UniProt P61160)
inactive: [1] 0.022 | [2] 0.019 | [3] 0.026 | [4] -0.012 | [5] -0.01

ACAP2 (UniProt Q15057)
inactive: [1] -0.009 | [2] -0.001 | [3] 0.132 | [4] 0.01 | [5] 0.011

ACY1 (UniProt Q03154)
inactive: [1] 0.028 | [2] 0.057 | [3] 0.034 | [4] -0.018 | [5] -0.003

ABCB5 (UniProt Q2M3G0)
inactive: [1] 0.054

ACAT2 (UniProt Q9BWD1)
inactive: [1] -0.024 | [2] -0.018 | [3] 0.031 | [4] -0.052 | [5] -0.052

ABI1 (UniProt Q8IZP0)
inactive: [1] -0.059 | [2] 0.1 | [3] 0.11 | [4] -0.107 | [5] -0.024

ABCD4 (UniProt O14678)
inactive: [1] 0.201 | [2] 0.058 | [3] 0.329 | [4] 0.113 | [5] 0.028

ABRACL (UniProt Q9P1F3)
inactive: [1] -0.353

ACHE isoform 2 (UniProt P22303)
inactive: [6] -0.111 | [7] -0.124 | [8] -0.708 | [1] 0.055 | [9] 0.097 | [10] -0.492 | [11] 0.197 | [12] 0.258 | [13] 0.067 | [14] 0 | [15] -0.378 | [16] 0.103 | [17] -0.252 | [18] 0.208 | [19] 0.161 | [20] -0.191 | [21] -0.037 | [22] -0.082 | [23] -0.307 | [24] 0.524 | [25] -0.563 | [26] -0.015 | [27] -0.169 | [28] -0.552 | [29] -0.407 | [30] 0.224 | [31] 0.356 | [32] 0.065 | [33] 0.244 | [34] -0.061

ADAL (UniProt Q6DHV7)
inactive: [1] -0.012 | [2] 0.058 | [3] 0.03 | [4] -0.009 | [5] -0.008

ABCF2 isoform 2 (UniProt Q9UG63)
inactive: [1] -0.017 | [2] 0.016 | [3] 0.008 | [4] 0.012 | [5] -0.038

Retrieved one by one from the list above (2):
ADAL (UniProt Q6DHV7)
inactive: [1] -0.012 | [2] 0.058 | [3] 0.03 | [4] -0.009 | [5] -0.008

ABCD4 (UniProt O14678)
inactive: [1] 0.201 | [2] 0.058 | [3] 0.329 | [4] 0.113 | [5] 0.028

Further results

ACOX3 (UniProt O15254)
inactive: [1] 0.015 | [2] 0.238 | [3] -0.185 | [4] 0.131 | [5] 0.077

ADAT3 (UniProt Q96EY9)
inactive: [1] 0.107 | [2] -0.048 | [3] 0.1 | [4] 0.014 | [5] -0.095

ACIN1 (UniProt Q9UKV3)
inactive: [1] 0.003 | [2] 0.095 | [3] 0.038 | [4] 0.023 | [5] -0.018

ACAD9 (UniProt Q9H845)
inactive: [1] 0.012 | [2] 0.028 | [3] 0.031 | [4] 0.022 | [5] 0.009

ACADVL isoform 3 (UniProt P49748)
inactive: [1] 0.019 | [2] 0.05 | [3] 0.009 | [4] -0.011 | [5] -0.018

ABCC5 (UniProt O15440)
inactive: [1] -0.034 | [2] 0.082 | [3] -0.02 | [4] -0.001 | [5] -0.025

ADAR isoform 4 (UniProt P55265)
inactive: [1] 0.065 | [2] -0.005 | [3] -0.376 | [4] -0.024 | [5] -0.007

ACSS2 isoform 2 (UniProt Q9NR19)
inactive: [1] -0.012 | [2] 0.043 | [3] 0.074 | [4] -0.002 | [5] -0.021

Reference: the supplement of paper PMC10849652
